Experimental data as given in PMC6016943.
These are yes or no findings as the source states them, for the method shown. Binding can be weak; no strength is given.

Target: T1, SAUR19 (SMALL AUXIN UP RNA 19), yeast two-hybrid bait from pBTM116-SAUR19 (Arabidopsis thaliana) (UniProt Q9FJG1)
T1 sequence: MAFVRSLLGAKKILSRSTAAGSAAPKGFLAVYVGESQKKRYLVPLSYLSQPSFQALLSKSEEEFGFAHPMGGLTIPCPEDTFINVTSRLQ
Assay: two-hybrid; lexA-based yeast two-hybrid; bait pBTM116-SAUR19, prey pACT2-PP2C.D, strain L40ccU3; selection media, room temperature, 3 to 6 days

binding: binds
Substance: PP2C.D1, yeast two-hybrid prey from pACT2-PP2C.D1 (Arabidopsis thaliana) (enzyme)
